Drawing on doi:10.1101/2024.06.13.598799, this text covers binding for one sequence.

Sequences of proteins named here, by UniProt entry; tags and fusion partners are left off.
UniProt Q05609: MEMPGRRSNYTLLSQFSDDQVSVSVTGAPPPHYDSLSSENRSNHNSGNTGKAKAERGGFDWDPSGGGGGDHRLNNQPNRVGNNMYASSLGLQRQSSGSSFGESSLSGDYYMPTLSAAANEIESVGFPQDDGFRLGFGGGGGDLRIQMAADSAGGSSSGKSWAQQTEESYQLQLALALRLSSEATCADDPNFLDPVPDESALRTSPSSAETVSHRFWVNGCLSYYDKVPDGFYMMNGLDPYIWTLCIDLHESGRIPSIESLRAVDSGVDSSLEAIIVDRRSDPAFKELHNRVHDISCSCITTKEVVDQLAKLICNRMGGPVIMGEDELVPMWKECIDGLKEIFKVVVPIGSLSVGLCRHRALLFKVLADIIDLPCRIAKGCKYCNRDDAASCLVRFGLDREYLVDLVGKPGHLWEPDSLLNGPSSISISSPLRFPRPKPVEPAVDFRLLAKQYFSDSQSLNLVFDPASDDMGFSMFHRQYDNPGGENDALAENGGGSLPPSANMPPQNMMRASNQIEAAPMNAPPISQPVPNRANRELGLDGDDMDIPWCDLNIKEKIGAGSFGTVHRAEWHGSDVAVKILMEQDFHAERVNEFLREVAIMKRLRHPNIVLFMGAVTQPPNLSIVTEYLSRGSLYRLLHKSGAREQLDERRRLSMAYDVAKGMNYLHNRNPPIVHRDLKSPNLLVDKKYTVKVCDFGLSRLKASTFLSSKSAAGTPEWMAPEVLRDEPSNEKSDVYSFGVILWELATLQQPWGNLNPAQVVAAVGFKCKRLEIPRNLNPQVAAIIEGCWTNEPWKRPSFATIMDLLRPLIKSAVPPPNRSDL

Results are given in words; binding and its absence hold for the method and conditions named. In cells and extracts the contact can be indirect. Sequences can lack the tags named with a protein.

The experiment concerns the target T1, EIN2-eYFP (ETHYLENE …2 fused to eYFP), expressed from EIN2p:EIN2-eYFP in ein2^W308* transgenic plants (Arabidopsis) (UniProt Q9S814).
T1 sequence: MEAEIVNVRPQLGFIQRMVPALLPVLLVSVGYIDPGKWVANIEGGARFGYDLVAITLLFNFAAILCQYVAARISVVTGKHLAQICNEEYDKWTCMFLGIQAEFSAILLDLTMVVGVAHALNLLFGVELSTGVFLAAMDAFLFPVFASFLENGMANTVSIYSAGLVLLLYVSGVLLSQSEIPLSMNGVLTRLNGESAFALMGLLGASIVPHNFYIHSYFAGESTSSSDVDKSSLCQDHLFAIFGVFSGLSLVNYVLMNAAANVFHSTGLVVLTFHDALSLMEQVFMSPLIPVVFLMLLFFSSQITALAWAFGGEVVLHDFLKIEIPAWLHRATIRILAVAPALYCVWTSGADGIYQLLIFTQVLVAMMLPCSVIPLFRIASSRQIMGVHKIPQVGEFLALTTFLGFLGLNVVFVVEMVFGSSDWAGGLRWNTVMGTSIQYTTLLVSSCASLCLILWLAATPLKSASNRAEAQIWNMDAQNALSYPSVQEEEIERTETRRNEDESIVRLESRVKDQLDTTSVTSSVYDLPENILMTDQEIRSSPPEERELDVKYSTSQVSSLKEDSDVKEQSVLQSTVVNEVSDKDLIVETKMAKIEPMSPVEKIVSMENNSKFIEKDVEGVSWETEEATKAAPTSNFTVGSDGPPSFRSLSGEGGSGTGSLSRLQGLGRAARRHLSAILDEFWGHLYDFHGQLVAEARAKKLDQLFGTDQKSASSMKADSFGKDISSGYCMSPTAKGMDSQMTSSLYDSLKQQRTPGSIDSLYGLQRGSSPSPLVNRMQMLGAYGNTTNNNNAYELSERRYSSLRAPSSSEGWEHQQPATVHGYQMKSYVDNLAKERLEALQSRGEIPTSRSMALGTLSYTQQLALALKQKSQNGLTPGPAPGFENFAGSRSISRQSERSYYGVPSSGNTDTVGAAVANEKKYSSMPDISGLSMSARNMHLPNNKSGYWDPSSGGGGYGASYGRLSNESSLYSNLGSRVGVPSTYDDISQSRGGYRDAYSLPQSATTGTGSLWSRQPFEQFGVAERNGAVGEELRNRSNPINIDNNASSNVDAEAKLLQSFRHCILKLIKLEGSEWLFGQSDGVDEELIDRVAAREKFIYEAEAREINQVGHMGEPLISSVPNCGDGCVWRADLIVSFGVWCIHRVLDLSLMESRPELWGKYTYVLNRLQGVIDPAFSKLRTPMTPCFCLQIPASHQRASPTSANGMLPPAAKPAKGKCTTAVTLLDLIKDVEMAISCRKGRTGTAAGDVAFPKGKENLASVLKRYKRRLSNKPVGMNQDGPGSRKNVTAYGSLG
Briefly: co-IP.

On to “CONSTITUTIVE TRIPLE-RESPONSE1 (CTR1) (from UniProt Q05609 1-821)”, for which the binding result is “no binding”.
